PubChem BioAssay AID720710, VTT Finland – 2013

Purpose: 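Genes whose loss lowers DNA synthesis when an oncogene drives replication stress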 (primary screen)
Cells: human U-2 OS bone cancer cells, parental and a cyclin E (CCNE1) overexpressing line
Knock-down reagent: single siRNA against human genes, 1 µM siRNA in the printed spot mix
Timing: 67 h
Conditions: half the arrays: hydroxyurea 2 mM for 16 h, then 3 h recovery; other arrays untreated
Measurement: 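EdU click signal imaged per DAPI-stained nucleus at 67 h; each spot divided by its subgrid median, then z-scored relative to non-targeting control spots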
Direction: EdU z-score, cyclin E line, hydroxyurea and EdU z-score, parental, hydroxyurea and EdU z-score, cyclin E line, untreated and EdU z-score, parental, untreated: higher = more DNA synthesis than non-targeting controls
Shown is one part, drawn at random, of about 1,380 reagents tested. 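One array per condition without replicates; hydroxyurea arrays received 2 mM for 16 h plus 3 h recovery.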 The numbers tell different reagents against one gene apart.

| target gene | reagent | EdU z-score, cyclin E line, hydroxyurea | EdU z-score, parental, hydroxyurea | EdU z-score, cyclin E line, untreated | EdU z-score, parental, untreated |
| --- | --- | --- | --- | --- | --- |
| ERCC6 (ERCC excision repair 6, chromatin remodeling factor) | 1 | -0.417 | -2.29 | -1.82 | 0.225 |
| ERCC6 (ERCC excision repair 6, chromatin remodeling factor) | 2 | 0.41 | 0.161 | 2.11 | 1.22 |
| HDAC9 (histone deacetylase 9) | 1 | -2.74 | -5.83 | -1.91 | -1.06 |
| HDAC9 (histone deacetylase 9) | 2 | -0.121 | 1.07 | -0.249 | -0.824 |
| SIRT5 (sirtuin 5) | 1 | -0.65 | -1.38 | -0.777 | -0.206 |
| SIRT5 (sirtuin 5) | 2 | 2.25 | -0.387 | -0.32 | 0.512 |
| UCP1 (uncoupling protein 1) | 1 | -0.875 | 0.935 | -3.56 | -1.09 |
| UCP1 (uncoupling protein 1) | 2 | 0.00657 | 0.979 | -0.53 | 0.403 |
| SIRT1 (sirtuin 1) | 1 | -0.522 | 0.287 | -2.12 | -0.695 |
| SIRT1 (sirtuin 1) | 2 | -0.4 | 0.471 | -0.44 | -0.595 |
| POLD1 (DNA polymerase delta 1, catalytic subunit) | 1 | 0.228 | -5.19 | -1.94 | -2.31 |
| POLD1 (DNA polymerase delta 1, catalytic subunit) | 2 | 1.99 | -2.99 | 0.439 | -1.18 |
| H4C11 (H4 clustered histone 11) | 1 | 0.262 | 0.0657 | -1.05 | -0.986 |
| H4C11 (H4 clustered histone 11) | 2 | 0.956 | 3.04 | 0.769 | 0.966 |
| TYMP (thymidine phosphorylase) | 1 | -0.0512 | -0.288 | -3.57 | -1.47 |
| TYMP (thymidine phosphorylase) | 2 | 0.358 | 3.23 | -1.96 | -0.428 |
| RBX1 (ring-box 1) | 1 | -1.11 | 0.422 | -3.21 | -0.499 |
| RBX1 (ring-box 1) | 2 | 0.933 | 1.61 | -2.4 | 0.735 |
| PNKP (polynucleotide kinase 3'-phosphatase) | 1 | 0.396 | -1.19 | -1.37 | -1.04 |
| PNKP (polynucleotide kinase 3'-phosphatase) | 2 | 1.11 | -0.456 | 0.168 | -0.378 |
| PCBP4 (poly(rC) binding protein 4) | 1 | 0.0323 | 0.859 | -0.418 | -2.01 |
| PCBP4 (poly(rC) binding protein 4) | 2 | 0.905 | 1.39 | -0.042 | 0.967 |
| CBX5 (chromobox 5) | 1 | 1.6 | 1.97 | -0.883 | -2.27 |
| CBX5 (chromobox 5) | 2 | 2.76 | 2.6 | -0.732 | 0.0408 |

Part of the list above, showing only “EdU z-score, parental, untreated”.
ERCC6 (ERCC excision repair 6, chromatin remodeling factor) #2 = 1.22
HDAC9 (histone deacetylase 9) #1 = -1.06
HDAC9 (histone deacetylase 9) #2 = -0.824
